Laboratory results as given in PubChem BioAssay AID652054 (National Center for Advancing Translational Sciences (NCATS), 2013).
In all, about 360,000 compounds went through this assay and about 9,100 (2.5%) were called active. Inconclusive results, whose numbers are uncertain, are shown with a selection of clear calls. Rule as the data show it: active = max response below about -50%; inconclusive = no clear call, values can overlap the other calls; inactive = above that.

Amino acid sequences for entries named in this document (tags omitted).
UniProt P35462, whole entry, looked up: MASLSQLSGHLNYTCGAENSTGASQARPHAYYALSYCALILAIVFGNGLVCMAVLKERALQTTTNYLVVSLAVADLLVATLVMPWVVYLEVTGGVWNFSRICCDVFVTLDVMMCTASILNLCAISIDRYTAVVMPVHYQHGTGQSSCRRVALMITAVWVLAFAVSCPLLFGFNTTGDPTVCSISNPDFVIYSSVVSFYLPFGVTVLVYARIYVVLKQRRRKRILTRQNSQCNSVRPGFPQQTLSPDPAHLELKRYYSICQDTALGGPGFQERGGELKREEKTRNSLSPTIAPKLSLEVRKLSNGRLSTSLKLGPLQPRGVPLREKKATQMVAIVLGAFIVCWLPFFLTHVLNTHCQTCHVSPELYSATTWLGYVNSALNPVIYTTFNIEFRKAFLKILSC

Each compound was assayed against D(3) dopamine receptor (Homo sapiens) (UniProt P35462) (assay: qHTS of D3 Dopamine Receptor Antagonist: qHTS). Details: D3R cells, DiscoveRx beta-arrestin luminescence, antagonist mode; hits give low values.
Method in brief: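 Cells expressing the human receptor were seeded at 1500 cells/well, incubated overnight at 37 degrees C in 5% CO2, then exposed to library compounds with dopamine controls for 90 minutes at 37 degrees C before luminescent detection.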
% is scaled to controls: 0 for no effect and ±100 for the full control effect.

Max response, negative = inhibition, inconclusive:
O=C(NCCN1CCOCC1)c1ccc2c(c1)ncn2C1CCCC1 -32.3%
O=C(N1CCCCCC1)N1CCN(C(=O)N2CCOCC2)CC1 -45.6%
CSCCCNC(=S)N(C)CC(=O)Nc1ccc(C)cc1 -31.1%
O=C(Cc1csc(Nc2nc(=S)[nH]c3ccccc23)n1)NCc1cccc(Cl)c1 -37.9%
Cc1ccc(-c2nc(Nc3cccc(C)c3)sc2CC(=O)O)cc1 -31.2%
O=C(CCCc1ccncc1)c1ccccc1 -34.1%
COc1cc(-c2cnc3c(NC=O)cc(-c4ccc(C)cc4)cn23)cc(OC)c1OC -34.6%
CCOc1cccc2sc(N(CCN(C)C)C(=O)c3ccc4ccccc4c3)nc12 -33%
Cc1ccsc1-c1cc2nc(NCCCN(C)C)n(C)c(=O)c2s1 -33.2%
Cc1nn(-c2nnc(C)c(=O)[nH]2)c(C)c1SCC(=O)Nc1ccc(F)cc1 -32.7%
O=c1/c(=C/c2ccco2)sc2nc(-c3ccccc3Br)nn12 -39.8%
CCN(CC)CCC(c1ccc(OC)cc1)c1c(O)cc(OC)cc1OC (configuration not stated) -33.1%
O=C(NC(=S)Nc1ccc(N2CCCCC2)cc1)c1cccs1 -37.9%
CC(OC(=O)C1CCN(c2ccc(C(F)(F)F)cn2)CC1)C(=O)Nc1cccc([N+](=O)[O-])c1 (configuration not stated) -34.8%
O=C(Cn1ncc2c(=O)oc3ccccc3c21)NCCN1CCN(c2ccccc2F)CC1 -43.9%
CC(=O)c1cccc(CN2CCCC(C(=O)Nc3cccc(-n4cccn4)c3)C2)c1 (configuration not stated) -44.4%
O=C(CNC(=O)c1ccccc1O)N/N=C/c1cc(Br)ccc1OC(=O)/C=C/c1ccco1 -46.9%
N#C/C(C(=O)NCc1ccco1)=C1/SC(Cc2ccc(Cl)cc2)C(=O)N1c1ccccc1 (configuration not stated) -40.4%
COc1cc(N=Nc2cccc(S(N)(=O)=O)c2)c2ccccc2c1N -38.6%
NC(=O)CC(NC(=O)c1ccc(Br)cc1)c1ccc(N2CCN(c3ccc(F)cc3)CC2)c([N+](=O)[O-])c1 (configuration not stated) -33.6%
CS(=O)(=O)N1Cc2cc(C(=O)NCC3CC3)nc(-c3cccc(-c4cccnc4)c3)c2[C@H]1CCO -46.3%
CC1(C)CC(N=Cc2c(O)n(Cc3ccc4c(c3)OCO4)c(=O)c3ccccc23)CC(C)(C)N1 -30.1%
COc1ccccc1OCc1nc2ccccc2s1 -34.6%
O=[N+]([O-])c1cc(/C=N/N/C(=N/c2ccccn2)c2ccccn2)ccc1O -45.8%
C=Cc1cc2c(cc1O)CCC1C2CCC2(C)C(O)CCC12 (configuration not stated) -30.3%
C#CCOCCOCCOCCNc1nc(N2CCN(C(=O)[C@H]([C@@H](C)CC)n3cc(CCCN=C(N)N)nn3)CC2)nc(N2CCN(C(=O)[C@H](CCCCN)n3cc(CCCC)nn3)CC2)n1 -46.1%
O=C(C1=C(O)C(=O)N(CCOCCO)C1c1ccccn1)c1cccs1 (configuration not stated) -30.3%
O=C1/C(=C\c2ccc(O)c(O)c2)SC(=S)N1Cc1ccccc1 -36.1%
CCOc1ccccc1CN1CCN(C/C=C/c2ccc(OC)cc2)CC1CCO (configuration not stated) -38.3%
COC(=O)c1cc(-c2ccc(OC)cc2F)nc2nc(SC)[nH]c(=O)c12 -32.1%
COc1ccc(OC)c(-n2c(-c3cc(-c4ccccc4)n[nH]3)n[nH]c2=S)c1 -36%
NC(=O)c1nsc(C(=O)N(Cc2ccc(F)cc2)C(C(=O)NCC2CCCO2)c2ccc(O)cc2)c1N (configuration not stated) -32.8%
CCOC(=O)COc1cc(-n2c(=S)[nH]c3cc(OC)c(OC)cc3c2=O)c(Cl)cc1Cl -32%
CC1(C)CC(=O)C=C(C(=O)N2CCCC(C(=O)c3cccc(C(F)(F)F)c3)C2)O1 (configuration not stated) -48.6%
CCOC(=O)C1=CN(CC)S(=O)(=O)NC1c1ccccc1 (configuration not stated) -33%
C=CCOc1cccc(C2C(C(=O)c3ccc(C)o3)=C(O)C(=O)N2Cc2ccncc2)c1 (configuration not stated) -48.1%
CC(C)(C)NC(=O)N1CCCC(C(=O)c2cccc(Cl)c2)C1 (configuration not stated) -35.1%
CC(=O)c1ccc(N2CCN(C(=O)c3ccc(Br)cc3)CC2)c(F)c1 -35.4%
O=C(O)c1nn(CCOc2ccccc2F)c(=O)c2ccccc12 -37.6%
COc1ccc(C2=CC(=O)CC(C)(C)C2)cc1 -43.2%
Cc1ccc2c(c1)C(=O)C(=O)N2CC(=O)OC(C)C -35%
CSc1ccc(CCNC(=O)Cn2ncc3c([nH]c4ccccc43)c2=O)cc1 -31.6%
CCCCC(=O)Nc1nnc(/C=C/c2ccc(OC)cc2)s1 -36.5%
Cc1ccc(C2C(C#N)=C(N)SC(N)=C2C#N)c(C)c1 -47.6%
C/C(=N\NC(=O)c1ccc(Cl)cc1)c1ccc(Br)s1 -37.3%
COc1cc(OC)c(OC)cc1CN1CCCC(C(=O)N2CCCCC2)C1 (configuration not stated) -39.7%

Quoted at random: 5 entries already listed
Max response, negative = inhibition, inconclusive:
O=C(Cc1csc(Nc2nc(=S)[nH]c3ccccc23)n1)NCc1cccc(Cl)c1 -37.9%
Cc1ccc(C2C(C#N)=C(N)SC(N)=C2C#N)c(C)c1 -47.6%
CC1(C)CC(=O)C=C(C(=O)N2CCCC(C(=O)c3cccc(C(F)(F)F)c3)C2)O1 (configuration not stated) -48.6%
NC(=O)c1nsc(C(=O)N(Cc2ccc(F)cc2)C(C(=O)NCC2CCCO2)c2ccc(O)cc2)c1N (configuration not stated) -32.8%
O=C(Cn1ncc2c(=O)oc3ccccc3c21)NCCN1CCN(c2ccccc2F)CC1 -43.9%

Following part.

Max response, negative = inhibition, inactive:
C/C(=N\Nc1ccc(C#N)cc1[N+](=O)[O-])c1ccc(O)cc1 -19.3%
O=S(=O)(Cc1ncc(C(F)(F)F)cc1Cl)c1ccccc1 -7.12%
COCCCN1C(=O)C(CC(=O)NCCCN(C)C)CC(C(=O)N2CCOCC2)=C1C (configuration not stated) 1.03%
CC(C)(C)NC(=O)NC(=O)CSc1ncccn1 -4.15%
CN1C(=O)c2cccc3c(S(=O)(=O)N4CCCC4C(=O)O)ccc1c23 (configuration not stated) -5.61%
CC1CCN(C(=O)COc2ccc(S(=O)(=O)N3CCOCC3)cc2)CC1 -14.2%
COc1cccc(N/C(N)=N/c2nc(C)cc(=O)[nH]2)c1 6%
O=C1NC[C@H](CCCCN2CCN(Cc3ccccc3)C(=O)C2=O)N(CCC2CCCCC2)C1=O -26.8%
COc1cccc(-c2csc(N3CCN(CC(=O)Nc4ccc5c(c4)OCO5)CC3)n2)c1 18.6%
CCCCn1c(-c2ccc(F)c(F)c2)nc2cc3[nH]c(=O)c(C(C)C)nc3cc21 6.89%
COc1ccc(NCc2ccc3c(c2)OCO3)cc1Cl -18.2%
S=c1nc(-c2cc(Cl)ccc2Cl)[nH][nH]1 -8.65%
O=C(c1ccccc1)c1ccc(Cn2cc(-c3ccccc3)nn2)cc1 15.4%
CNS(=O)(=O)c1cccc(C(=O)OCC(=O)NC(C)CCc2ccccc2)c1 (configuration not stated) -3.03%
CCN(CC)CCCNC(=O)c1cc(Nc2ccc(OC)cc2OC)nc2ccccc12 -18.9%
O=C(CCl)Nc1cccc(Oc2ccccc2)c1 -18.2%
Fc1ccccc1N1CCN(Cc2cnc(Cl)s2)CC1 -20.6%
C/C(=N/O)c1ccc2c(c1)OCCOCCOc1cc(/C(C)=N/O)ccc1OCCOCCO2 5.8%
CCOC(=O)c1c(NC(=O)CSc2nnc(C)s2)sc2c1CCCCC2 -11.6%
CC(=O)Nc1cc(-c2ccccc2N(C)C)cn2c(-c3ccccc3)cnc12 4.92%
O=S(=O)(Cc1ccccc1)/C1=C(\N2CCOCC2)CCCCCC1 13.6%
CCOc1ccc(/C=N/NC(=O)C(O)c2ccccc2)c(O)c1 (configuration not stated) 8.51%
CO/N=C/NC(=O)N1OC[C@@H]2COc3ccc4ccccc4c3[C@@H]21 -14.9%
COc1cccc(CNC(=O)COC(=O)CCS(=O)(=O)c2ccc(C)cc2)c1 -17.2%
Nc1nnc2c(n1)CCCC2 -28.6%
CC(=O)OCC(=O)C1(O)CCC2C3CC(C)C4=CC(=O)C=CC4(C)C3(F)C(O)CC21C (configuration not stated) 5.56%

Max response, negative = inhibition, active:
O=C(NCCN1CCC(n2c(=O)[nH]c3ccccc32)CC1)c1cc(F)cc(F)c1 -101%
COCCNCCCOc1ccc(C)cc1Br -51.3%
COc1ccc(N2CCN(CC(O)COc3ccc(F)cc3)CC2)cc1 (configuration not stated) -66.4%
Cc1ccccc1NC(=O)Nc1nc(C(N)C2CCCCC2)cs1 (configuration not stated) -83.8%
CC(=O)OCCCNc1cc(Sc2nc3ccccc3s2)c2nonc2c1[N+](=O)[O-] -77.9%
CC(C)(C)NC(=O)C(c1cccs1)N(C(=O)C(=O)NC1CCCC1)c1ccccc1F (configuration not stated) -64.8%
CSc1cccc(CN2CCN(CCC(C)C)C(CCO)C2)c1 (configuration not stated) -50.9%
CC(C(=O)Nc1sc2c(c1C(=O)NCc1ccco1)CCCC2)N1C(=O)c2ccccc2C1=O (configuration not stated) -64.9%
O=C(CCN1Cc2ccccc2C1)c1ccc2c(c1)OCCO2 -52.4%
COc1ccc(Cl)cc1C(=O)NCC(c1ccco1)N(C)C (configuration not stated) -78.6%
Cc1cc(Cl)ccc1NC(=O)CCC(=O)N/N=C/c1cc([N+](=O)[O-])ccc1O -55.9%
CCN(CC)CCNc1ccc(CO)c2oc3cc(Cl)ccc3c(=O)c12 -55.6%
CC(C)C(O)(C#CCN1CCCCCC1)c1ccccc1 (configuration not stated) -60%
CN(CC1CCCN(CCc2cccc(C(F)(F)F)c2)C1)C(=O)c1cc2ccccc2o1 (configuration not stated) -74%
CC(C)(C)c1cc(C(=O)N/N=C/c2cc3c(cc2Br)OCO3)n[nH]1 -88.3%
